Binding data for five molecules are collected here from article doi:10.1101/2022.06.07.495180.

By UniProt entry, the sequences of proteins in these tests, tags left out.
UniProt P06239: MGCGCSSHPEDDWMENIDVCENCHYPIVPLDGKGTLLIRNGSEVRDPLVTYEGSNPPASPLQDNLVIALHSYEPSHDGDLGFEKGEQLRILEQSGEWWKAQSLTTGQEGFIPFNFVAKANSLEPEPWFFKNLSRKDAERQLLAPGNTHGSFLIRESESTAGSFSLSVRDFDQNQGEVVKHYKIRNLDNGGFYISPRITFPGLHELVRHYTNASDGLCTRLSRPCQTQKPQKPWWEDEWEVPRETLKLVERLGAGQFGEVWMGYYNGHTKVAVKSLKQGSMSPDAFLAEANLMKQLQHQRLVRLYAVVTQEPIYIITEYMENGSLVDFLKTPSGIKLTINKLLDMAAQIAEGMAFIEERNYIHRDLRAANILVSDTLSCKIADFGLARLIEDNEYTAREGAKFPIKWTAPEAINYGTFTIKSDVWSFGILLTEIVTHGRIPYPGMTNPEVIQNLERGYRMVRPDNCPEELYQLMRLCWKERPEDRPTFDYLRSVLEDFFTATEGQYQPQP
UniProt Q9UKE5: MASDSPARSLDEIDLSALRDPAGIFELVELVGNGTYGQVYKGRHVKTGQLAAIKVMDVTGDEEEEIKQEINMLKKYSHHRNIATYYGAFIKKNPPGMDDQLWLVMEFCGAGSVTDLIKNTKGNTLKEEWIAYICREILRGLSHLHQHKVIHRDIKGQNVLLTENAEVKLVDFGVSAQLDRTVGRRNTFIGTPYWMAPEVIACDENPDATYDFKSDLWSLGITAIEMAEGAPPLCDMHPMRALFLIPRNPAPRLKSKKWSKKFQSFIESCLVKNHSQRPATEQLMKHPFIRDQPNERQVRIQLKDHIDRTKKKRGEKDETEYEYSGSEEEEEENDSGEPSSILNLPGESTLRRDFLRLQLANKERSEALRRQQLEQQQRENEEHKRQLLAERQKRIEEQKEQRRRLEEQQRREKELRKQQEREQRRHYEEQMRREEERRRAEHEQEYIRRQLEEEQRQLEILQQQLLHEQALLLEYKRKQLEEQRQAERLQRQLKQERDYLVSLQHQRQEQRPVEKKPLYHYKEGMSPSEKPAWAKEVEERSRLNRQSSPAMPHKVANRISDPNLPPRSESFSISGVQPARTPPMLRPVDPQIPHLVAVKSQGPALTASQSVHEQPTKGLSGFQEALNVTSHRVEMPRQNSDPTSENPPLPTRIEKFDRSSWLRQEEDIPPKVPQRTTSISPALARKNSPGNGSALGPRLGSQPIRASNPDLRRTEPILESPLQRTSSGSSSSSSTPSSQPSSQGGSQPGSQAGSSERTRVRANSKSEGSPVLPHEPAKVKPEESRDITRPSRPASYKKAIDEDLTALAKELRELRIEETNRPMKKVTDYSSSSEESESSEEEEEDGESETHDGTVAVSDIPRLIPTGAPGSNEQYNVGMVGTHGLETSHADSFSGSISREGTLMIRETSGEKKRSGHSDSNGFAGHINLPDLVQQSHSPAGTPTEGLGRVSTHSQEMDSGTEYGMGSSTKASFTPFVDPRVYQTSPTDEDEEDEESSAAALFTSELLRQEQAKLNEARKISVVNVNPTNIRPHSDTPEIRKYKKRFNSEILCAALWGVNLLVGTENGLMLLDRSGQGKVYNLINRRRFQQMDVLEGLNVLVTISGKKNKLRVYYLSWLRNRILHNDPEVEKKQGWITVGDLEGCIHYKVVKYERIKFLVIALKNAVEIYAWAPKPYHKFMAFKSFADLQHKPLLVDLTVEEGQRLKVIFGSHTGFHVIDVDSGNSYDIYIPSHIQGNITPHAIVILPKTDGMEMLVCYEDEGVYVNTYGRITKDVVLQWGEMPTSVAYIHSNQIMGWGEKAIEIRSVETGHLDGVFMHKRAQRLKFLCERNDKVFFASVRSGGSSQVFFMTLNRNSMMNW
UniProt Q13489: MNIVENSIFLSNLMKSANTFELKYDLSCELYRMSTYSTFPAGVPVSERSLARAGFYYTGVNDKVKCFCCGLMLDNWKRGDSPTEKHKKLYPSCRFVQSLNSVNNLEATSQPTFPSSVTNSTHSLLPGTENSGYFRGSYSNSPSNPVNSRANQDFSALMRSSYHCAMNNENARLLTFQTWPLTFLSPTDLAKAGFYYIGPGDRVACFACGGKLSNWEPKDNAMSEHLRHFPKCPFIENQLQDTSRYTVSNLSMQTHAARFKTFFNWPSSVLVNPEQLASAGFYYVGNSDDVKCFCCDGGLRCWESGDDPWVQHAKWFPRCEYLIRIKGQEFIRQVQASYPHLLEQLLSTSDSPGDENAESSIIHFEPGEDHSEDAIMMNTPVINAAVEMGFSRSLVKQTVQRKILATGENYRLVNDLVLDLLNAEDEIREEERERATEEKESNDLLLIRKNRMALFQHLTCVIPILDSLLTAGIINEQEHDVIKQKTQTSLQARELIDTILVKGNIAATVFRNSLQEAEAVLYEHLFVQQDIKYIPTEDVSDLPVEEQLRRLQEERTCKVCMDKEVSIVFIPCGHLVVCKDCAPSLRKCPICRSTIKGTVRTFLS
UniProt P43403: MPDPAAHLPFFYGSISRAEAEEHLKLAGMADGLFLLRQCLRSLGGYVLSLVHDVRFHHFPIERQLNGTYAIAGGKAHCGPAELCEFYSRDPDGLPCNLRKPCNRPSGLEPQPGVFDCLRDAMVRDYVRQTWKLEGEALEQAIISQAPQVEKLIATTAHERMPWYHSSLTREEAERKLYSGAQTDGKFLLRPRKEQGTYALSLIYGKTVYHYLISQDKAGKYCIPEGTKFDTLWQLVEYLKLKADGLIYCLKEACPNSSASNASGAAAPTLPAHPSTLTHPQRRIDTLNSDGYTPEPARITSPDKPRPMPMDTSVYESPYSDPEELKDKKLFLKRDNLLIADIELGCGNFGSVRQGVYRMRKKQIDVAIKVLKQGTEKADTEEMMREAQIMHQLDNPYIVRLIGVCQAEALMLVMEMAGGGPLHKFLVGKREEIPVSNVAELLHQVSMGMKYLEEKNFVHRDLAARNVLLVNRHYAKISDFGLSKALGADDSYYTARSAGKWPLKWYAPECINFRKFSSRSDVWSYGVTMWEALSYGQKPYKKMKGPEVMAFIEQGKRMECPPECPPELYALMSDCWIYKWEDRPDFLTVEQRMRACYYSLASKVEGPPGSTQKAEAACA

These are yes or no findings as the source states them, for the method shown. In cells and extracts the contact can be indirect. Some results given as binding are weak or reduced against the parent protein; the word gives no strength.

Assay in all cases: co-IP
For test [1], the target named is T1, TRAF1 (human (endogenous in primary T cells)) (UniProt Q13077).
T1 sequence: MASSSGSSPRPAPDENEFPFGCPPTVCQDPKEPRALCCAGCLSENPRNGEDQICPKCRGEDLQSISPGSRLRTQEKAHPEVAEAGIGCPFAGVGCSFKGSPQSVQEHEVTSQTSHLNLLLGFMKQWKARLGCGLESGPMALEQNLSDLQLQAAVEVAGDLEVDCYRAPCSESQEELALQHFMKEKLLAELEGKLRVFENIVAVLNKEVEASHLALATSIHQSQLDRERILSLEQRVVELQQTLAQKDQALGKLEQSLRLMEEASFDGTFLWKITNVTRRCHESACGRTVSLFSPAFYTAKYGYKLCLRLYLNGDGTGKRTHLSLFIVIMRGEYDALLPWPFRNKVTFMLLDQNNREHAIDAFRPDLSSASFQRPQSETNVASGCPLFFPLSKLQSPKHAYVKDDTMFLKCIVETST

For test [2], the target named is LCK (human (endogenous in primary T cells)) (UniProt P06239).
Test [3] deals with TNIK (human (endogenous in primary T cells)) (UniProt Q9UKE5).
Test [4] concerns the target T2, SLP76 (human (endogenous in primary T cells)) (UniProt Q13094).
T2 sequence: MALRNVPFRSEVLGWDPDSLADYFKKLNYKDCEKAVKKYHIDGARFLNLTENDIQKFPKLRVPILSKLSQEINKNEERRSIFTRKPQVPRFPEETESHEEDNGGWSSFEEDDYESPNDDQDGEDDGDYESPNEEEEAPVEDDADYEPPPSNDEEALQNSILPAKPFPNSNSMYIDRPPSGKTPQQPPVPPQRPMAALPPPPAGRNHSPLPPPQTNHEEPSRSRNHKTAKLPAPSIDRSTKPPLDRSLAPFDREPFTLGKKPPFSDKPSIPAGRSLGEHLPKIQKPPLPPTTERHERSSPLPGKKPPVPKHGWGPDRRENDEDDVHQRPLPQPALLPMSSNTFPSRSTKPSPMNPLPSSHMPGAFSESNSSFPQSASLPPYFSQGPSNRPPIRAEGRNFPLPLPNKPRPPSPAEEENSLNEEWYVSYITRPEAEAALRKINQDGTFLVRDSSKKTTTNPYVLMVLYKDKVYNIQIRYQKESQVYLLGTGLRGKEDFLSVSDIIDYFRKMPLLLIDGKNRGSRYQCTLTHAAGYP

For the molecule BIRC3 (from UniProt Q13489 1-604), in test [1], the binding result is given as “binds”.

For ZAP70 (from UniProt P43403 1-619), the binding result in test [2] is recorded as “binds”.

B1: TAK1 (protein, UniProt O43318 1-606)
chain: MSTASAASSSSSSSAGEMIEAPSQVLNFEEIDYKEIEVEEVVGRGAFGVVCKAKWRAKDVAIKQIESESERKAFIVELRQLSRVNHPNIVKLYGACLNPVCLVMEYAEGGSLYNVLHGAEPLPYYTAAHAMSWCLQCSQGVAYLHSMQPKALIHRDLKPPNLLLVAGGTVLKICDFGTACDIQTHMTNNKGSAAWMAPEVFEGSNYSEKCDVFSWGIILWEVITRRKPFDEIGGPAFRIMWAVHNGTRPPLIKNLPKPIESLMTRCWSKDPSQRPSMEEIVKIMTHLMRYFPGADEPLQYPCQYSDEGQSNSATSTGSFMDIASTNTSNKSDTNMEQVPATNDTIKRLESKLLKNQAKQQSESGRLSLGASRGSSVESLPPTSEGKRMSADMSEIEARIAATTAYSKPKRGHRKTASFGNILDVPEIVISGNGQPRRRSIQDLTVTGTEPGQVSSRSSSPSVRMITTSGPTSEKPTRSHPWTPDDSTDTNGSDNSIPMAYLTLDHQLQPLAPCPNSKESMAVFEQHCKMAQEYMKVQTEIALLLQRKQELVAELDQDEKDQQNTSRLVQEHKKLLDENKSLSTYYQQCKKQLEVIRSQQQKRQGTS
For B1, in test [3], the binding result is “binds”.

B2: GRAP2 (protein, UniProt O75791 1-330)
chain: MEAVAKFDFTASGEDELSFHTGDVLKILSNQEEWFKAELGSQEGYVPKNFIDIQFPKWFHEGLSRHQAENLLMGKEVGFFIIRASQSSPGDFSISVRHEDDVQHFKVMRDNKGNYFLWTEKFPSLNKLVDYYRTNSISRQKQIFLRDRTREDQGHRGNSLDRRSQGGPHLSGAVGEEIRPSMNRKLSDHPPTLPLQQHQHQPQPPQYAPAPQQLQQPPQQRYLQHHHFHQERRGGSLDINDGHCGTGLGSEMNAALMHRRHTDPVQLQAAGRVRWARALYDFEALEDDELGFHSGEVVEVLDSSNPSWWTGRLHNKLGLFPANYVAPMTR
In the case of B2, the binding result in test [3] is reported as “binds”.

B3: LAT (protein, UniProt O43561 1-262)
chain: MEEAILVPCVLGLLLLPILAMLMALCVHCHRLPGSYDSTSSDSLYPRGIQFKRPHTVAPWPPAYPPVTSYPPLSQPDLLPIPRSPQPLGGSHRTPSSRRDSDGANSVASYENEGASGIRGAQAGWGVWGPSWTRLTPVSLPPEPACEDADEDEDDYHNPGYLVVLPDSTPATSTAAPSAPALSTPGIRDSAFSMESIDDYVNVPESGESAEASLDGSREYVNVSQELHPGAAKTEPAALSSQEAEEVEEEGAPDYENLQELN
B3: the binding entry in test [4] is on record as “binds”.
